# PubChem BioAssay AID1159578, Peter MacCallum Cancer Centre – 2015
# Screen: 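Genome-wide hunt for genes controlling movement of lymphatic endothelial cells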 (primary screen)
# System: human lymphatic endothelial cells
# Reagent: siRNA pool against human genes, 40 nM
# Timing: 48 h after transfection
# Read-out: 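Cells stained with dye and imaged after a scratch; covered wound area and nuclei counted, duplicates averaged, migration set against mock wells and turned into a robust z-score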
# Scale: migration robust z-score: higher = faster migration into the scratch; migration relative to mock: higher = more scratch area covered than mock; nuclei per well: higher = more cells in the well
# Active means: 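Migration changed when robust z exceeds 2 or falls below -2 and mean nuclei number is at least 3300; otherwise not called changed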
# Calls: active = migration changed; inactive = no migration change, or too few cells
# Here is one part, drawn at random, of about 18,000 reagents. About 1,030 of them (5.7%) count as active. 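Inactive calls also include pools with fewer than 3300 nuclei, whose migration was not assessed.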 The raw values are shown without normalisation. Unmarked entries are inactive.
Gene,migration robust z-score,migration class with cell-count check,migration relative to mock,"nuclei per well, duplicate mean"
TP53TG5 (GeneID 27296),-0.05,migration z between -2 and 2; enough cells,0.88,6060
UGT1A5 (GeneID 54579),0.29,migration z between -2 and 2; enough cells,0.86,5452
SCAF1 (GeneID 58506),-0.88,migration z between -2 and 2; enough cells,0.66,5129
KCNE3 (GeneID 10008),1.2,migration z between -2 and 2; enough cells,1.04,5607
ACTRT3 (GeneID 84517),1.45,migration z between -2 and 2; enough cells,1.26,6032
RTL10 (GeneID 79680),-4.39,under 3300 nuclei; migration not judged,-0.26,2342
COX19 (GeneID 90639),1.02,migration z between -2 and 2; enough cells,1.15,6786
MASTL (GeneID 84930),-0.28,migration z between -2 and 2; enough cells,0.75,3810
BMPR2 (GeneID 659),-0.83,migration z between -2 and 2; enough cells,0.64,5529
PWWP3B (GeneID 139221),0.22,migration z between -2 and 2; enough cells,0.94,6114
SLC13A1 (GeneID 6561),1.25,migration z between -2 and 2; enough cells,1.04,4804
DSCR10 (GeneID 259234),1.44,migration z between -2 and 2; enough cells,1.25,4971
PGBD1 (GeneID 84547),0.39,migration z between -2 and 2; enough cells,0.99,5706
IPO9 (GeneID 55705),2.11 (active),migration z above 2; enough cells,1.43,4954
SOST (GeneID 50964),-0.08,migration z between -2 and 2; enough cells,0.79,4536
RIMKLA (GeneID 284716),-1.66,migration z between -2 and 2; enough cells,0.45,5300
SNX5 (GeneID 27131),0.29,migration z between -2 and 2; enough cells,0.86,6262
MYL6 (GeneID 4637),-0.18,migration z between -2 and 2; enough cells,0.77,6974
WASHC2A (GeneID 387680),0.27,migration z between -2 and 2; enough cells,0.96,6533
ACTR6 (GeneID 64431),1.36,migration z between -2 and 2; enough cells,1.23,5894
SLC4A8 (GeneID 9498),-2.02 (active),migration z below -2; enough cells,0.42,3792
SPR (GeneID 6697),0.64,migration z between -2 and 2; enough cells,0.93,5718
GUCA2B (GeneID 2981),0.03,migration z between -2 and 2; enough cells,0.81,7420
TNFAIP6 (GeneID 7130),0.03,migration z between -2 and 2; enough cells,0.9,5898
BTG4 (GeneID 54766),0.19,migration z between -2 and 2; enough cells,0.94,5642
F11 (GeneID 2160),0.29,migration z between -2 and 2; enough cells,0.86,5400
NDUFV3 (GeneID 4731),-0.74,migration z between -2 and 2; enough cells,0.69,5860
KICS2 (GeneID 144577),1.35,migration z between -2 and 2; enough cells,1.23,5056
TRAK1 (GeneID 22906),-0.42,migration z between -2 and 2; enough cells,0.78,6084
ZNF619 (GeneID 285267),-1.49,migration z between -2 and 2; enough cells,0.5,5404
ABCA9 (GeneID 10350),-0.7,migration z between -2 and 2; enough cells,0.67,4891
GBGT1 (GeneID 26301),0.6,migration z between -2 and 2; enough cells,0.92,6250
ARHGAP5 (GeneID 394),-0.8,migration z between -2 and 2; enough cells,0.65,4643
USP2 (GeneID 9099),0.39,migration z between -2 and 2; enough cells,0.88,4510
ZNF23 (GeneID 7571),-0.98,migration z between -2 and 2; enough cells,0.63,3911
ZNF765 (GeneID 91661),-0.48,migration z between -2 and 2; enough cells,0.76,6322
CALU (GeneID 813),0.38,migration z between -2 and 2; enough cells,0.98,5242
RBMY1A1 (GeneID 5940),3.07 (active),migration z above 2; enough cells,1.68,6535
PNLIPRP1 (GeneID 5407),-0.71,migration z between -2 and 2; enough cells,0.7,6740
RBM10 (GeneID 8241),-0.58,migration z between -2 and 2; enough cells,0.74,4768
CORO2A (GeneID 7464),0,migration z between -2 and 2; enough cells,0.89,5430
BRSK2 (GeneID 9024),0.24,migration z between -2 and 2; enough cells,0.85,5958
SOAT2 (GeneID 8435),-0.43,migration z between -2 and 2; enough cells,0.77,6034
PFKFB3 (GeneID 5209),0.06,migration z between -2 and 2; enough cells,0.82,5388
ZNF461 (GeneID 92283),0.64,migration z between -2 and 2; enough cells,1.05,6529
APOM (GeneID 55937),-0.26,migration z between -2 and 2; enough cells,0.82,6636
GABRQ (GeneID 55879),0.18,migration z between -2 and 2; enough cells,0.84,5366
DEFB118 (GeneID 117285),-0.25,migration z between -2 and 2; enough cells,0.82,5954
TRIM6 (GeneID 117854),0.73,migration z between -2 and 2; enough cells,0.94,6461
NOP56 (GeneID 10528),0.1,migration z between -2 and 2; enough cells,0.92,6158
AGTR2 (GeneID 186),0.8,migration z between -2 and 2; enough cells,0.96,4290
CCDC6 (GeneID 8030),-0.71,migration z between -2 and 2; enough cells,0.7,4195
ZCWPW2 (GeneID 152098),-0.74,migration z between -2 and 2; enough cells,0.7,7255
TSSK2 (GeneID 23617),-4.33,under 3300 nuclei; migration not judged,-0.03,3052
LEMD1 (GeneID 93273),0.32,migration z between -2 and 2; enough cells,0.97,6216
WDR53 (GeneID 348793),-1.12,migration z between -2 and 2; enough cells,0.6,5894
GAPVD1 (GeneID 26130),0.32,migration z between -2 and 2; enough cells,0.97,7042

3 entries from above, ordered by “nuclei per well, duplicate mean”, low to high:
Gene,migration robust z-score,migration class with cell-count check,migration relative to mock,"nuclei per well, duplicate mean"
GABRQ (GeneID 55879),0.18,migration z between -2 and 2; enough cells,0.84,5366
ZNF461 (GeneID 92283),0.64,migration z between -2 and 2; enough cells,1.05,6529
APOM (GeneID 55937),-0.26,migration z between -2 and 2; enough cells,0.82,6636
